PMC11231340, “Werner helicase interacting protein 1 contributes to G-quadruplex processing in human cells”
No constants are given. Whether binding was seen depends on the method and setting. Binding seen in cells or lysates may run through a third protein. Some entries that bind do so weakly or less than the wild type. Tags and fused reporters may be left off the sequences shown.

Target: T1, V2-WRNIP1 (human Werner helicase interacting protein 1 fused to the C-terminal fragment of VENUS YFP) (human) (UniProt Q96S55)
T1 sequence: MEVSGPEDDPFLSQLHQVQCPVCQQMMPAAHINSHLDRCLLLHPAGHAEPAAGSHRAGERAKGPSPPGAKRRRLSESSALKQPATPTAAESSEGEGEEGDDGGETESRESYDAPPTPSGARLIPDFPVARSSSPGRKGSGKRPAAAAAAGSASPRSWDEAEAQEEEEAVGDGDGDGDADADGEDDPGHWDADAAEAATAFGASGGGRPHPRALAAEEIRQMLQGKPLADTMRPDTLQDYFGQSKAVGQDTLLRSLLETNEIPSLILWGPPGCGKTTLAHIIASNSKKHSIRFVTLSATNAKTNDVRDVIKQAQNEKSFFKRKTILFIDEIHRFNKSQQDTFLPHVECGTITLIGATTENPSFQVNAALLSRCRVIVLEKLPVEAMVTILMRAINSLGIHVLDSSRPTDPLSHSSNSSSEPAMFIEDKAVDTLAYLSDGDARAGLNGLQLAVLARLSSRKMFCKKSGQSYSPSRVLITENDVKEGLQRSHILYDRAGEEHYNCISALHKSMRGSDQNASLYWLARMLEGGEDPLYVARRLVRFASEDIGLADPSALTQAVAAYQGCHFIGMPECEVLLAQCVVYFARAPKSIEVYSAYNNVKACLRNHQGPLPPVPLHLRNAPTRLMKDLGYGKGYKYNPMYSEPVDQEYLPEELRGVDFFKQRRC
Assay: split reporter; split VENUS protein fragment complementation in HeLa cells; V1-PIF1 and V2-WRNIP1 plasmids transfected 1:1, cells fixed 48 h after transfection, confocal microscopy; foci lost on co-transfection of shDNA against WRNIP1 or PIF1

binding: binds
B1: V1-PIF1 (human PIF1 DNA helicase fused to the N-terminal fragment of VENUS YFP) (enzyme, UniProt Q9H611 1-641)
chain: MLSGIEAAAGEYEDSELRCRVAVEELSPGGQPRRRQALRTAELSLGRNERRELMLRLQAPGPAGRPRCFPLRAARLFTRFAEAGRSTLRLPAHDTPGAGAVQLLLSDCPPDRLRRFLRTLRLKLAAAPGPGPASARAQLLGPRPRDFVTISPVQPEERRLRAATRVPDTTLVKRPVEPQAGAEPSTEAPRWPLPVKRLSLPSTKPQLSEEQAAVLRAVLKGQSIFFTGSAGTGKSYLLKRILGSLPPTGTVATASTGVAACHIGGTTLHAFAGIGSGQAPLAQCVALAQRPGVRQGWLNCQRLVIDEISMVEADLFDKLEAVARAVRQQNKPFGGIQLIICGDFLQLPPVTKGSQPPRFCFQSKSWKRCVPVTLELTKVWRQADQTFISLLQAVRLGRCSDEVTRQLQATASHKVGRDGIVATRLCTHQDDVALTNERRLQELPGKVHRFEAMDSNPELASTLDAQCPVSQLLQLKLGAQVMLVKNLSVSRGLVNGARGVVVGFEAEGRGLPQVRFLCGVTEVIHADRWTVQATGGQLLSRQQLPLQLAWAMSIHKSQGMTLDCVEISLGRVFASGQAYVALSRARSLQGLRVLDFDPMAVRCDPRVLHFYATLRRGRSLSLESPDDDEAASDQENMDPIL
